Results from patent US20120039796A1, “Novel method for creating, suspending and stabilizing electronically modified oxygen derivatives, along with creating, suspending and stabilizing electronically modified reaction intermediates, in a bio compatible fluorocarbon suspension, for the purpose of inducing a cascading immune response in …” (priority 2010, published 2012).
At least one compound was matched to its structure with a doubt left.

Test: Stability of ozone in 95% pure Fluorodecalin (C10F18), non-frozen, continuous absorbance at 260 nm
Format: physicochemical
Details: spectrometer over 98 degree F
Procedure: After the ten hours expired, the spectrometer was quickly restarted for another 10 hours, were after the first 4 hours and 20 min in the second run is where the sample reached its half life. Once the 20 hours expired, the ABS reading was 0.082 were it took another 10 hours for Ozone too fully decay.
In the first PFC experiment, the ozone was stable within the PFC matrix for over 5 hours without any appreciable decay, after 5 hours the sample started to deviate and when the 10 hours mark was reached, the reading was around 0.600 ABS, in the last 5 hours of the run is when the sample lost 0.09 ABS, this was excellent result. In the second part of the experiment is where the sample decay accelerated. […] It should be noted the sample of PFC was 95% pure, and was the only purity I could attain at the time for the experiment and due to time constraints another sample could not have been attained. It should also be noted when the sample was finally removed from the machine for clean up, about 60 hours later after the initial experiment, half the sample evaporated. […] The utility of this patent is self evident; this invention solves the problems that plagued modern ozone therapy for the last 100 years.

In the case of `O=[O+][O-]` [ozone], the “total time to reach the half life” value is reported as 14 h and 0.333 h.
